Results are given in words; binding and its absence hold for the method and conditions named. Binding seen in cells or lysates may run through a third protein. Some binding calls cover weakened binding; strength is not graded here. For part of these data: Tags and fused reporters may be left off the sequences shown.
Assays:
Assay in all cases: co-IP; lysates (RIPA buffer) of CSIAN cells co-transfected with Flag-tagged CSB and a Myc-tagged protein, 24 hr post transfection; anti-c-myc agarose overnight; Western blot with anti-Flag
[1] = target: T1, Myc-tagged EFTUD2 (human) (UniProt Q15029)
T1 sequence: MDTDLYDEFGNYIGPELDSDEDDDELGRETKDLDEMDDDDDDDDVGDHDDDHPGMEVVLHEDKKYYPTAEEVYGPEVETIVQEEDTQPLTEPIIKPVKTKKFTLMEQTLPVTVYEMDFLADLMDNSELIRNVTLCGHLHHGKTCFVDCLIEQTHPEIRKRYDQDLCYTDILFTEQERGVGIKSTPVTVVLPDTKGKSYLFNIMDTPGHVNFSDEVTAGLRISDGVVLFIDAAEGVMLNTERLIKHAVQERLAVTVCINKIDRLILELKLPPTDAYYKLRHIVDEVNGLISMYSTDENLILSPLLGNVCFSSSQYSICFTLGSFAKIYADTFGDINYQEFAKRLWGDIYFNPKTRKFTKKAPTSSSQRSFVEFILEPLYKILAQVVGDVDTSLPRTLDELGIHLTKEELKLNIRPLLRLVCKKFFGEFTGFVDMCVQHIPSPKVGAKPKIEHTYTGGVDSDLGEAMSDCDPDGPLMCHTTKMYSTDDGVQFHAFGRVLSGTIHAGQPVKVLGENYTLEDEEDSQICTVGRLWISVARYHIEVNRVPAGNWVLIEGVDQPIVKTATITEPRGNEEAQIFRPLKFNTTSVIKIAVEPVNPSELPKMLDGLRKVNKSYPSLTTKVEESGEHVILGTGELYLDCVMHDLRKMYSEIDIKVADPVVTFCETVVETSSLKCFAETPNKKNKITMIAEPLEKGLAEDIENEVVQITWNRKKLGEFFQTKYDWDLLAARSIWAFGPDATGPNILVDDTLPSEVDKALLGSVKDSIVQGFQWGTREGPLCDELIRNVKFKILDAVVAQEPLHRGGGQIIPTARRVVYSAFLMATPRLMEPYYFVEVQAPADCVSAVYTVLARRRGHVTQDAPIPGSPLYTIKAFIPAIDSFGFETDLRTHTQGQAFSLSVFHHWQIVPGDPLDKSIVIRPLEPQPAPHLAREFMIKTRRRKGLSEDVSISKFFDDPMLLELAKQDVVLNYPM

Protein sequences, listed by entry. Tags and fused reporters are not part of them.
UniProt Q92841: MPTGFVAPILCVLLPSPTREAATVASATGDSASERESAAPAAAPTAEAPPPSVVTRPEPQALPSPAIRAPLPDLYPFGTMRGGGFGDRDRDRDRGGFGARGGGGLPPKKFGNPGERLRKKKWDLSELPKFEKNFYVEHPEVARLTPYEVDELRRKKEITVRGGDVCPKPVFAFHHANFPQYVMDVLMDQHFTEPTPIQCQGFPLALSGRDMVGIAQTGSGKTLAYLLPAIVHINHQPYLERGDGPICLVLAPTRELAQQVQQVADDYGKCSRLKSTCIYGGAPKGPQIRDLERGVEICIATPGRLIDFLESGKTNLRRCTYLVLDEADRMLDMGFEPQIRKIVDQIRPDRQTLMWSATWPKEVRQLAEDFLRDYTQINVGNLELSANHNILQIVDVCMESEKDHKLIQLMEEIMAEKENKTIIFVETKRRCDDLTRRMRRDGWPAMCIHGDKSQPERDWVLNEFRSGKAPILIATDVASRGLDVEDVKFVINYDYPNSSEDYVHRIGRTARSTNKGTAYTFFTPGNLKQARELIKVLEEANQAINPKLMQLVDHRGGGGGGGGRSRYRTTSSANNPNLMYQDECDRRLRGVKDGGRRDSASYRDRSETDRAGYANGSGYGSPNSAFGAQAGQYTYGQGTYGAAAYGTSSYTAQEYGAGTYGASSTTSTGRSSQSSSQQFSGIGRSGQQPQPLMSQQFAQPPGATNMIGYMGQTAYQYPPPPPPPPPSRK
UniProt Q13200: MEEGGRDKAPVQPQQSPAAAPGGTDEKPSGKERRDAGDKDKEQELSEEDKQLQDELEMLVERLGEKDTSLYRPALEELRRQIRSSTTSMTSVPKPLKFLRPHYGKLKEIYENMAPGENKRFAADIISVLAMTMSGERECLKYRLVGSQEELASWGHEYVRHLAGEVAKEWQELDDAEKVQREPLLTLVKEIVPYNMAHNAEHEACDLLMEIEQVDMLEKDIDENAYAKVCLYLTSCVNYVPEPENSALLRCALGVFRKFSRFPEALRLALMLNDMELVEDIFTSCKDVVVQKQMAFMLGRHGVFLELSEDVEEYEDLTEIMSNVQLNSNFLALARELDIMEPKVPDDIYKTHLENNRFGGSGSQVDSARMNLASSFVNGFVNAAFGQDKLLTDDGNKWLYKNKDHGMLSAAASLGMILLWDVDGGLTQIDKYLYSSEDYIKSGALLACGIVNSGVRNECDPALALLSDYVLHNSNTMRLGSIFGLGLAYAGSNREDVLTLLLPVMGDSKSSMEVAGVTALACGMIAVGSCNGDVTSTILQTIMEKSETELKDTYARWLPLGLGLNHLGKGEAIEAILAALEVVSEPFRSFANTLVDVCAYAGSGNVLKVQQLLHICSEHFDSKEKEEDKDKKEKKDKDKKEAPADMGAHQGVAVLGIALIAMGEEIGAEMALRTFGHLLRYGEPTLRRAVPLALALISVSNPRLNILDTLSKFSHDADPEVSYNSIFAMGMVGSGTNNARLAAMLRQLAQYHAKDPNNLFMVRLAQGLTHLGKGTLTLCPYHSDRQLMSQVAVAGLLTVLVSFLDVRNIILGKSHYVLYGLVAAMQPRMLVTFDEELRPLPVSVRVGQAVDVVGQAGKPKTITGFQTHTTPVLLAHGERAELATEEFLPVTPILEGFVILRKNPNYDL
UniProt Q93009: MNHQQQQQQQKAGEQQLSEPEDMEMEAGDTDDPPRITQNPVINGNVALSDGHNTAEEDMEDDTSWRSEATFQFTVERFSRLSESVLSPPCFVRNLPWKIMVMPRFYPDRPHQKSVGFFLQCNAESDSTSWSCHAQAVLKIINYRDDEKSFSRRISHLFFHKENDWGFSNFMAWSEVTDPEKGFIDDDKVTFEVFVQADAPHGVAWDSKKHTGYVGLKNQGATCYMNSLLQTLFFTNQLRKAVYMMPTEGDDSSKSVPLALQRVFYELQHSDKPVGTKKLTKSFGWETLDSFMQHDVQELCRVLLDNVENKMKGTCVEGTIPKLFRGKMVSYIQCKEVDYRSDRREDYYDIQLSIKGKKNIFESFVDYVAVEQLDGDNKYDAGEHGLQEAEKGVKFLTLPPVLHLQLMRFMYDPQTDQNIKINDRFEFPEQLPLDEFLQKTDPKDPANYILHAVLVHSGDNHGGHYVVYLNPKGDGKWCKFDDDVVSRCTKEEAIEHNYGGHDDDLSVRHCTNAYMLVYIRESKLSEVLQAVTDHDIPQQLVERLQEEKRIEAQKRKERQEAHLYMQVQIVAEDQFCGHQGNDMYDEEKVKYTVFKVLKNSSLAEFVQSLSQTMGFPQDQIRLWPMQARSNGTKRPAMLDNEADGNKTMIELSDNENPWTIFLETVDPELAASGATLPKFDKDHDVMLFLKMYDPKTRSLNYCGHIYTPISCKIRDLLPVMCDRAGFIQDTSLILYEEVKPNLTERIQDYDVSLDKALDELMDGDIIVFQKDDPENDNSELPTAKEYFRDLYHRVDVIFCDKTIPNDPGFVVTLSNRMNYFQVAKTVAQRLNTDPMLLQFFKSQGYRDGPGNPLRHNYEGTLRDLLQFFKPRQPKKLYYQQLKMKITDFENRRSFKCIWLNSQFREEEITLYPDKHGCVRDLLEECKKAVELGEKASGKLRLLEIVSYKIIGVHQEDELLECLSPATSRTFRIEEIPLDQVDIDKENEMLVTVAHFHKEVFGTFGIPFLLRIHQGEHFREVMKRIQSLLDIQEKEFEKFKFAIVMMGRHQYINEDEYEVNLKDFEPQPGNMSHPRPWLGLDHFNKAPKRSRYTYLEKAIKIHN
UniProt P13010: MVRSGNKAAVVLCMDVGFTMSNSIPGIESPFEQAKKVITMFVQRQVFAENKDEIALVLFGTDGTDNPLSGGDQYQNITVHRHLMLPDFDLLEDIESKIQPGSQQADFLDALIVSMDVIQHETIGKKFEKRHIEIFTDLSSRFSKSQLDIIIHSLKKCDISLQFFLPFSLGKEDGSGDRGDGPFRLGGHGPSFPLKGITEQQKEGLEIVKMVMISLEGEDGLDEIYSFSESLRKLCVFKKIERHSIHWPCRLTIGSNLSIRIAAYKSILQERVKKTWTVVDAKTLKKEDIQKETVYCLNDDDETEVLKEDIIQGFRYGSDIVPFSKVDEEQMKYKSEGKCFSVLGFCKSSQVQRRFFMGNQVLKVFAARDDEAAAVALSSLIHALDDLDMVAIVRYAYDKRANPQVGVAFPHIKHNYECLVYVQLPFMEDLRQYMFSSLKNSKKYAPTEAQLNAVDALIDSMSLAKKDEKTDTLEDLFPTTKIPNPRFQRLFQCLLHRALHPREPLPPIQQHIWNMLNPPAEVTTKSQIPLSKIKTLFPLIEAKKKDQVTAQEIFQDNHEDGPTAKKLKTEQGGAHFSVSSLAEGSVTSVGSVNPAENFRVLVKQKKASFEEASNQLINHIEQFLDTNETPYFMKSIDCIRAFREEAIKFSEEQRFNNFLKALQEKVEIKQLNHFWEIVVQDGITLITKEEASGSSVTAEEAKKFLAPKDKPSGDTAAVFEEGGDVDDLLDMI
UniProt Q03468: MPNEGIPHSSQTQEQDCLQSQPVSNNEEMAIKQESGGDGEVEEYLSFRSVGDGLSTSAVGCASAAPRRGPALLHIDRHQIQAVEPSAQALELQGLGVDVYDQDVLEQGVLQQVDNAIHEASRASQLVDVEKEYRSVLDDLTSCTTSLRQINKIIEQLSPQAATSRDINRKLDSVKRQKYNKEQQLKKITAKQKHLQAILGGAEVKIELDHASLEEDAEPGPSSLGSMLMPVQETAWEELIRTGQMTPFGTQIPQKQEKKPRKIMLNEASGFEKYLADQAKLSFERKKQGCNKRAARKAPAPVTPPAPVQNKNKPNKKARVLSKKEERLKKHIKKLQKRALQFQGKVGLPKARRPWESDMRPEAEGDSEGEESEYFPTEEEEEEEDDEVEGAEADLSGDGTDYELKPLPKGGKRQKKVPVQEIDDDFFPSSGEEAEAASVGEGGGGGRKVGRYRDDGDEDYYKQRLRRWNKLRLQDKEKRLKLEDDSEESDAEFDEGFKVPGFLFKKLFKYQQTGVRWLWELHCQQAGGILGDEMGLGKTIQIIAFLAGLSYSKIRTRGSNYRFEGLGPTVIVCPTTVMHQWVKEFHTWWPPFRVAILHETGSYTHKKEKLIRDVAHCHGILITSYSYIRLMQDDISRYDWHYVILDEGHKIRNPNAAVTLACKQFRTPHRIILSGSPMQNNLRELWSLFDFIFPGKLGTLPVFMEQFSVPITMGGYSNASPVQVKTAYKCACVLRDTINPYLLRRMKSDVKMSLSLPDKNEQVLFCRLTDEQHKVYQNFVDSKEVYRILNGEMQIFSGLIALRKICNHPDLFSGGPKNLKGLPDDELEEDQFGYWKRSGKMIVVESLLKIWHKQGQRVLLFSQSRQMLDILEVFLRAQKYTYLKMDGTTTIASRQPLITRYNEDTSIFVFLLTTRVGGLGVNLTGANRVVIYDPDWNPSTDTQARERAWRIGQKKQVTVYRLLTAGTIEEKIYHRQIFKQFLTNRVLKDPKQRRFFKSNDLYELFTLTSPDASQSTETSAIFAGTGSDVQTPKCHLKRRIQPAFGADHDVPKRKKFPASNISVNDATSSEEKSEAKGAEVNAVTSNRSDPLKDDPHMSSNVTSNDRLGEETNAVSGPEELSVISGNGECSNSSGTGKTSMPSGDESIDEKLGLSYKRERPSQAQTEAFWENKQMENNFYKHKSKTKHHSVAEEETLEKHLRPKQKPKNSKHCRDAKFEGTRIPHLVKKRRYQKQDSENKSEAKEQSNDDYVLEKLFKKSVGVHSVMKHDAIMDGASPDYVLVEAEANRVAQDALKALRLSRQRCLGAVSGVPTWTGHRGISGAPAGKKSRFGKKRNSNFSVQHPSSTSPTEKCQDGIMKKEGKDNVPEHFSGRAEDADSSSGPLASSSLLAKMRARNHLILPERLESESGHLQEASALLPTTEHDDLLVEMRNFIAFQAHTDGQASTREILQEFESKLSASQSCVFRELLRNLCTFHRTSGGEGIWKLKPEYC

[2] = target: Myc-tagged DDX17 (human) (UniProt Q92841)
[3] = target: Myc-tagged PSMD2 (human) (UniProt Q13200)
[4] = target: Myc-tagged USP7 (human) (UniProt Q93009)
[5] = target: Myc-tagged XRCC5 (human) (UniProt P13010)
[6] = target: T2, Myc-tagged HLTF (human) (UniProt Q14527)
T2 sequence: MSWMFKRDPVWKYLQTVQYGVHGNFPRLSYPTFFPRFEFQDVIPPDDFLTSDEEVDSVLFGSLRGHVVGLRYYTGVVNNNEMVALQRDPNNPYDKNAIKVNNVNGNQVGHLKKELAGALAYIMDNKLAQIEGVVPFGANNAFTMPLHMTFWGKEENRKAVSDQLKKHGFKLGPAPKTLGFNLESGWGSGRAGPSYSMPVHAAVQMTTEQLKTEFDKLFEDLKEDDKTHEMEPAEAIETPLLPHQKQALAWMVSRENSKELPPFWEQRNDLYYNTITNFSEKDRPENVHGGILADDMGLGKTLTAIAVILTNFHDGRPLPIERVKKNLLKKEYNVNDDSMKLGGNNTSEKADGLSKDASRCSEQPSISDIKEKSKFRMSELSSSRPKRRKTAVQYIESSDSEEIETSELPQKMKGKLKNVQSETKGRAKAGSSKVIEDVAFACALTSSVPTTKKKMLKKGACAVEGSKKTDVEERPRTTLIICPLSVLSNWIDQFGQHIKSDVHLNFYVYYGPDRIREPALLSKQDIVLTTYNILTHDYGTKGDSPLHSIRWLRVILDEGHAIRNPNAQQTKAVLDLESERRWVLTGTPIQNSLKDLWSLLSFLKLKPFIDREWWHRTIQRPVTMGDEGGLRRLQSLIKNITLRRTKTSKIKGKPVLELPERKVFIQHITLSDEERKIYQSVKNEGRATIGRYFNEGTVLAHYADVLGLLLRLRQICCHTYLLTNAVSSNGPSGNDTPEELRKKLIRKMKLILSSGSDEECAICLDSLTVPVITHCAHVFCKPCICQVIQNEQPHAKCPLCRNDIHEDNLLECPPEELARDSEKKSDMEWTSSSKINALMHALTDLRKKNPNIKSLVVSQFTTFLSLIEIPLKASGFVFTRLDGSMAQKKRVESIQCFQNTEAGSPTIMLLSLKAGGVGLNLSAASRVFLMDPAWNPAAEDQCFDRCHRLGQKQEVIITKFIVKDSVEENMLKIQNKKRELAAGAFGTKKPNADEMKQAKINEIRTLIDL

binding [1]: no binding
binding [2]: binds
binding [3]: no binding
binding [4]: binds
binding [5]: binds
binding [6]: no binding
Substance: Flag-tagged CSB (from UniProt Q03468 1-1493)
